Results as given in the supplement of paper PMC11098740.
Counter-ions that a name gives are not always drawn. ± gives the standard deviation of the averaged measurements. Some of the results follow. Repeats are few or missing, and single values can be far off.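 Test system: a mixed pool of 41 HAP1 clones in which 61 cancer-associated proteins carry fluorescent tags inserted into introns, and each clone is identified from its image pattern. Read-outs are compared with DMSO-treated control wells. The BRD4 degrader dBET6 served as the positive control.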

The chains behind the UniProt entries cited, without tags or fusion partners.
UniProt O14980, whole entry: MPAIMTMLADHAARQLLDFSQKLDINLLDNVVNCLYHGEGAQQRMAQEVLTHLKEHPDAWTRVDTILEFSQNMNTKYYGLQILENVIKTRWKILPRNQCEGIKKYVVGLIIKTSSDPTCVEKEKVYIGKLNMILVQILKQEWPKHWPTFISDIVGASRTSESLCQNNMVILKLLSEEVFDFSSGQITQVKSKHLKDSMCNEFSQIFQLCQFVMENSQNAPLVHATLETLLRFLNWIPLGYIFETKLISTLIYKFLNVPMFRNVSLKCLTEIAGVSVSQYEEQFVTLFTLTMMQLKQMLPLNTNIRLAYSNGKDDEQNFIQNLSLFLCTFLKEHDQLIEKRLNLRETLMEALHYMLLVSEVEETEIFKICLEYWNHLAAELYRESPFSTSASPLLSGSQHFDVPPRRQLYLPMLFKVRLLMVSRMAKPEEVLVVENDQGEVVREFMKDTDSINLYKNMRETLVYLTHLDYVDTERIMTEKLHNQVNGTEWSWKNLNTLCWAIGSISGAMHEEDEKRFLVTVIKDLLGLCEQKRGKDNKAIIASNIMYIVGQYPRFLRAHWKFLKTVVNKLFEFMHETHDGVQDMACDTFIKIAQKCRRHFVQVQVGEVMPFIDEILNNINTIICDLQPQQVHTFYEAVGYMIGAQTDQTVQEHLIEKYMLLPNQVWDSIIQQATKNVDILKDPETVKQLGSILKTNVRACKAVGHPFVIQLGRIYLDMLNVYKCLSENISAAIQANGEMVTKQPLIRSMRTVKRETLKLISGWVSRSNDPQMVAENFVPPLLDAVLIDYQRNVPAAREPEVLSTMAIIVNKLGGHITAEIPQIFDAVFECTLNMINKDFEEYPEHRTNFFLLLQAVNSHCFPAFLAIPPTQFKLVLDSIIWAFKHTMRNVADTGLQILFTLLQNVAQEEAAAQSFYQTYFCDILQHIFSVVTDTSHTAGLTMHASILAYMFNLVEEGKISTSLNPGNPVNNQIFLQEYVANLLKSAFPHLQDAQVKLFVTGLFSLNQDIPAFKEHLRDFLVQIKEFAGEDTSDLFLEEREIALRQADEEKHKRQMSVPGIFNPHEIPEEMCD

Target: XPO1 (intron 15 mScarlet tag, HAP1) (UniProt O14980)
Test: XPO1 fluorescence intensity change vs DMSO (log2 fold change); higher = more XPO1 protein
Conditions: 6 h

| Structure (SMILES) | XPO1 fluorescence intensity change (log2) |
| --- | --- |
| CN(CCOc1ccc(CC2SC(=O)NC2=O)cc1)c1ccccn1 (stereo unspecified) [Rosiglitazone] (10.0005 µM) | 0.124 |
| C[C@](N)(Cc1ccc(O)c(O)c1)C(=O)O [Methyldopa] (10 µM) | 0.0557 |
| OCCN1C[C@H](O)[C@@H](O)[C@H](O)[C@H]1CO [Miglitol] (10 µM) | 0.0895 |
| O=C1CCc2ccc(OCCCCN3CCN(c4cccc(Cl)c4Cl)CC3)cc2N1 [Aripiprazole] (10.0009 µM) | -0.0791 |
| NC[C@H]1CC[C@H](C(=O)O)CC1 [Tranexamic Acid] (10 µM) | 0.106 |
| CN(C)C(=O)C(CCN1CCC(O)(c2ccc(Cl)cc2)CC1)(c1ccccc1)c1ccccc1 [Loperamide] (10.00034001 µM) | 0.137 |
| C[N+](C)(C)CCOC(=O)CCC(=O)OCC[N+](C)(C)C [Succinylcholine Chloride] (10 µM) | -0.0774 |
| Cc1ncsc1-c1ccc(CNC(=O)[C@@H]2C[C@@H](O)CN2C(=O)[C@@H](NC(=O)C2(F)CC2)C(C)(C)C)c(OCCOc2ccc(CN3CCN(c4cc(-c5ccccc5O)nnc4N)CC3)cc2)c1 (0.1 µM) | -0.00285 |
| C[C@H](N)C(=O)O.N[C@@H](Cc1ccc(O)cc1)C(=O)O [Glatiramer Acetate] (10 µM) | 0.197 |
| Cc1nnc(C(=O)NC(C)(C)c2nc(C(=O)NCc3ccc(F)cc3)c(O)c(=O)n2C)o1 [Raltegravir] (10 µM) | 0.0579 |
| S=P(N1CC1)(N1CC1)N1CC1 [Thiotepa] (20 µM) | 0.00624 |
| CC(C)NCC(O)COc1ccc(CC(N)=O)cc1 (stereo unspecified) [Atenolol] (10 µM) | 0.123 |
| c1ccc(CC2=NCCN2)cc1 [Tolazoline] (10 µM) | 0.0114 |
| CC(=O)O[C@H]1C[C@@H]2CC[C@@H]3[C@H](CC[C@@]4(C)[C@H]3C[C@H]([N+]3(C)CCCCC3)[C@@H]4OC(C)=O)[C@@]2(C)C[C@@H]1N1CCCCC1 [Vecuronium Bromide] (10.00071805 µM) | 0.0468 |
| O=C1[C@H](CC[C@H](O)c2ccc(F)cc2)[C@@H](c2ccc(O)cc2)N1c1ccc(F)cc1 [Ezetimibe] (10.00060281 µM) | -0.112 |
| O=NN(CCCl)C(=O)NCCCl [Carmustine] (20 µM) | -0.0281 |

5 successive compounds out of the list so far:

| Structure (SMILES) | XPO1 fluorescence intensity change (log2) |
| --- | --- |
| C[C@](N)(Cc1ccc(O)c(O)c1)C(=O)O [Methyldopa] (10 µM) | 0.0557 |
| OCCN1C[C@H](O)[C@@H](O)[C@H](O)[C@H]1CO [Miglitol] (10 µM) | 0.0895 |
| O=C1CCc2ccc(OCCCCN3CCN(c4cccc(Cl)c4Cl)CC3)cc2N1 [Aripiprazole] (10.0009 µM) | -0.0791 |
| NC[C@H]1CC[C@H](C(=O)O)CC1 [Tranexamic Acid] (10 µM) | 0.106 |
| CN(C)C(=O)C(CCN1CCC(O)(c2ccc(Cl)cc2)CC1)(c1ccccc1)c1ccccc1 [Loperamide] (10.00034001 µM) | 0.137 |

Going on with the list:

| Structure (SMILES) | XPO1 fluorescence intensity change (log2) |
| --- | --- |
| NCCc1ccc(O)c(O)c1 [Dopamine] (10.0004 µM) | -0.00119 |
| Cc1oncc1C(=O)Nc1ccc(C(F)(F)F)cc1 [Leflunomide] (10 µM) | -0.0288 |
| CC(C)C[C@H](NC(=O)[C@H](Cc1ccccc1)NC(=O)c1cnccn1)B(O)O [Bortezomib] (0.00595 µM) | -0.0522 ± 0.075 |
| Cc1ccc(Cl)c(Nc2ccccc2C(=O)O)c1Cl [Meclofenamate (sodium)] (10 µM) | 0.0428 |
| CC(C)NCC(O)c1ccc(O)c(O)c1 (stereo unspecified) [Isoproterenol] (10 µM) | -0.138 |
| Cc1sc2c(c1C)C(c1ccc(Cl)cc1)=N[C@@H](CC(=O)NCCCCCCCCNC(=O)COc1cccc3c1C(=O)N(C1CCC(=O)NC1=O)C3=O)c1nnc(C)n1-2 (stereo partly specified) (0.1 µM) | 0.154 |
| COc1cc(N)c(Cl)cc1C(=O)NC1CCNCC1OC (stereo unspecified) [Norcisapride] (7.74983 µM) | -0.114 |
| CC[C@]1(O)C[C@@H]2CN(CCc3c([nH]c4ccccc34)[C@@](C(=O)OC)(c3cc4c(cc3OC)N(C)[C@H]3[C@@](O)(C(N)=O)[C@H](O)[C@]5(CC)C=CCN6CC[C@]43[C@@H]65)C2)C1 [Vindesine sulfate] (10 µM) | -0.0158 |
| O=C1CCCC(=O)C1C(=O)c1ccc(C(F)(F)F)cc1[N+](=O)[O-] [Nitisinone] (10 µM) | -0.209 |
| COc1cc(C(=O)O)ccc1NC(=O)[C@@H]1N[C@@H](CC(C)(C)C)[C@](C#N)(c2ccc(Cl)cc2F)[C@H]1c1cccc(Cl)c1F [Idasanutlin] (20 µM) | -0.0266 |
| O=c1n(CCCN2CCN(c3cccc(Cl)c3)CC2)nc2ccccn12 [Trazodone] (10 µM) | -0.0279 |
| COc1ccc2c3c1O[C@H]1C[C@@H](O)C=C[C@@]31CCN(C)C2 [Galantamine] (10 µM) | -0.133 |
| CC(=O)c1ccc(S(=O)(=O)NC(=O)NC2CCCCC2)cc1 [Acetohexamide] (10 µM) | 0.0385 |
| Cc1cc(C)cc(OCC2CNC(=O)O2)c1 (stereo unspecified) [Metaxalone] (10 µM) | 0.0988 |
| CC1=Nc2ccc(Cl)cc2S(=O)(=O)N1 [Diazoxide] (10 µM) | -0.0342 |
